These are yes or no findings as the source states them, for the method shown. In cells and extracts the contact can be indirect. Some entries that bind do so weakly or less than the wild type.
Molecular target: PC4 and SFRS1-interacting protein (human (endogenous in EBV-transformed lymphoblast cells of an FD patient)) (UniProt O75475)
Experiment: co-IP; endogenous proteins in FD cell lysates; 5 ug antibody covalently cross-linked to Protein A/G magnetic beads (Pierce Crosslink Magnetic IP/Co-IP kit), room temperature 2 hours, low-pH elution, Western blotting; nonimmune IgG as negative control

Sequences of proteins named here, by UniProt entry; tags and fusion partners are left off.
UniProt O75475: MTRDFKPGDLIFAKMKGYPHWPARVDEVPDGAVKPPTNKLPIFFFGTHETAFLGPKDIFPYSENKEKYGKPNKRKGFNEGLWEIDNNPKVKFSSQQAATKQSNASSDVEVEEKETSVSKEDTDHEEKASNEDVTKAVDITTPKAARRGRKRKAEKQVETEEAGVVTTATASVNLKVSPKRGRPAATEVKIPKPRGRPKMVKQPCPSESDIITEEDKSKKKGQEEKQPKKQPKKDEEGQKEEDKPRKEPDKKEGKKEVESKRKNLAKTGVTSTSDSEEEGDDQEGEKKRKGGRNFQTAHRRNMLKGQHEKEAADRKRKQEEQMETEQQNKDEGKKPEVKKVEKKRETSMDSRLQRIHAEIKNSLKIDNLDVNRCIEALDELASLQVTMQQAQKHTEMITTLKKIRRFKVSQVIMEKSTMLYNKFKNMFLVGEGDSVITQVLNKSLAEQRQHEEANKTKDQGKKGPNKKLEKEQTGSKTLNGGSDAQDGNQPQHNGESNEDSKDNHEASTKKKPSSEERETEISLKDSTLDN
UniProt Q07955: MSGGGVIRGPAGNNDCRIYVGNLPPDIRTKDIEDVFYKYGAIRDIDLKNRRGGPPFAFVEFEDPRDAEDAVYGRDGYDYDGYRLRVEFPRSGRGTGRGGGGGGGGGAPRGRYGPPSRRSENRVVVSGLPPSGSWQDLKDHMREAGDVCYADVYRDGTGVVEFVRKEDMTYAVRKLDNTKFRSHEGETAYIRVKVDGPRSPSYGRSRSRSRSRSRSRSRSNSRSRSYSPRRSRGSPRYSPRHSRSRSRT

SF2/ASF (from UniProt Q07955 1-248)
binding: binds

— PMC5400244
